Experimental data: PubChem BioAssay AID1259405 (NCATS, 2018)
Purpose: 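Knock-downs that lift recombinant protein yield in hamster ovary cells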 (primary screen). System: Chinese hamster CHO-K1 ovary cells with stable secreted eGFP expression. Reagents: single siRNA against mouse genes, 0.8 pmol siRNA per well (2 µl of 400 nM stock). Time to read-out: 3 days. Detection: 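Per-well intracellular GFP measured by laser scanning cytometry, plus viability from ATP luminescence, each relative to plate median of non-targeting control wells, in %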. Reading the numbers: GFP, % of control: higher = more GFP per well, higher productivity; viability (ATP), % of control: higher = more viable cells (more ATP). Call rule: 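Called active when intracellular GFP, relative to negative control, is at or above 120%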.
The whole screen tested about 50,000 reagents; this is a random part of them. About 4,000 of all reagents (8%) count as active. 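Mouse siRNA library applied to hamster cells; one well for each siRNA.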 Reagents against one gene are numbered here.

Spc25 #1 | GFP, % of control = 72.9; viability (ATP), % of control = 67.3; outcome = inactive
Spc25 #2 | GFP, % of control = 61; viability (ATP), % of control = 36.1; outcome = inactive
Spc25 #3 | GFP, % of control = 52.3; viability (ATP), % of control = 74.3; outcome = inactive
Cd99 #1 | GFP, % of control = 78.4; viability (ATP), % of control = 68.2; outcome = inactive
Cd99 #2 | GFP, % of control = 76.4; viability (ATP), % of control = 49.3; outcome = inactive
Cd99 #3 | GFP, % of control = 67.3; viability (ATP), % of control = 88.8; outcome = inactive
Smap2 #1 | GFP, % of control = 204; viability (ATP), % of control = 95.7; outcome = active
Smap2 #2 | GFP, % of control = 68.5; viability (ATP), % of control = 76; outcome = inactive
Smap2 #3 | GFP, % of control = 57.4; viability (ATP), % of control = 64.6; outcome = inactive
Smap2 #4 | GFP, % of control = 123; viability (ATP), % of control = 106; outcome = active
Smap2 #5 | GFP, % of control = 81.2; viability (ATP), % of control = 123; outcome = inactive
Smap2 #6 | GFP, % of control = 93.3; viability (ATP), % of control = 85.3; outcome = inactive
Spz1 #1 | GFP, % of control = 66.3; viability (ATP), % of control = 63; outcome = inactive
Spz1 #2 | GFP, % of control = 52.5; viability (ATP), % of control = 66.1; outcome = inactive
Spz1 #3 | GFP, % of control = 71.2; viability (ATP), % of control = 66.9; outcome = inactive
Adamts12 #1 | GFP, % of control = 44; viability (ATP), % of control = 54.6; outcome = inactive
Adamts12 #2 | GFP, % of control = 77; viability (ATP), % of control = 71.6; outcome = inactive
Adamts12 #3 | GFP, % of control = 80.4; viability (ATP), % of control = 76.4; outcome = inactive
Cd164 #1 | GFP, % of control = 72.2; viability (ATP), % of control = 65.5; outcome = inactive
Cd164 #2 | GFP, % of control = 85.3; viability (ATP), % of control = 96.7; outcome = inactive
Cd164 #3 | GFP, % of control = 104; viability (ATP), % of control = 86.8; outcome = inactive
Actn1 #1 | GFP, % of control = 118; viability (ATP), % of control = 84.4; outcome = inactive
Actn1 #2 | GFP, % of control = 103; viability (ATP), % of control = 82.7; outcome = inactive
Nifk #1 | GFP, % of control = 75.9; viability (ATP), % of control = 99; outcome = inactive
Nifk #2 | GFP, % of control = 96.7; viability (ATP), % of control = 50.7; outcome = inactive
Nifk #3 | GFP, % of control = 92; viability (ATP), % of control = 107; outcome = inactive
Sugp2 #1 | GFP, % of control = 50.8; viability (ATP), % of control = 72.8; outcome = inactive
Sugp2 #2 | GFP, % of control = 87.3; viability (ATP), % of control = 70.6; outcome = inactive
Sugp2 #3 | GFP, % of control = 71.5; viability (ATP), % of control = 62; outcome = inactive
Dmrt3 #1 | GFP, % of control = 57.7; viability (ATP), % of control = 71.5; outcome = inactive
Dmrt3 #2 | GFP, % of control = 60; viability (ATP), % of control = 80.9; outcome = inactive
Dmrt3 #3 | GFP, % of control = 73; viability (ATP), % of control = 74.5; outcome = inactive
Pcdhga4 #1 | GFP, % of control = 90.7; viability (ATP), % of control = 85.7; outcome = inactive
Pcdhga4 #2 | GFP, % of control = 124; viability (ATP), % of control = 87.7; outcome = active
Or2m12 #1 | GFP, % of control = 63.1; viability (ATP), % of control = 80.6; outcome = inactive
Or2m12 #2 | GFP, % of control = 87.4; viability (ATP), % of control = 72.3; outcome = inactive
Or2m12 #3 | GFP, % of control = 75.8; viability (ATP), % of control = 96.5; outcome = inactive
Akr1b7 #1 | GFP, % of control = 135; viability (ATP), % of control = 59.9; outcome = active
Akr1b7 #2 | GFP, % of control = 82.2; viability (ATP), % of control = 53.9; outcome = inactive
Akr1b7 #3 | GFP, % of control = 69.1; viability (ATP), % of control = 58.8; outcome = inactive
Arx #1 | GFP, % of control = 63.7; viability (ATP), % of control = 85.3; outcome = inactive
Arx #2 | GFP, % of control = 87.7; viability (ATP), % of control = 81; outcome = inactive
Arx #3 | GFP, % of control = 31.7; viability (ATP), % of control = 34.6; outcome = inactive
Calm2 #1 | GFP, % of control = 93.7; viability (ATP), % of control = 120; outcome = inactive
Calm2 #2 | GFP, % of control = 93.7; viability (ATP), % of control = 90.4; outcome = inactive
Ankrd17 #1 | GFP, % of control = 39.2; viability (ATP), % of control = 44; outcome = inactive
Ankrd17 #2 | GFP, % of control = 63.2; viability (ATP), % of control = 62; outcome = inactive
Ankrd17 #3 | GFP, % of control = 120; viability (ATP), % of control = 69; outcome = active
Nadsyn1 #1 | GFP, % of control = 48.6; viability (ATP), % of control = 51.7; outcome = inactive
Nadsyn1 #2 | GFP, % of control = 93.1; viability (ATP), % of control = 69.4; outcome = inactive
Nadsyn1 #3 | GFP, % of control = 95.2; viability (ATP), % of control = 127; outcome = inactive
Pex11a #1 | GFP, % of control = 93.7; viability (ATP), % of control = 53.1; outcome = inactive
Pex11a #2 | GFP, % of control = 91.9; viability (ATP), % of control = 78.8; outcome = inactive
Pex11a #3 | GFP, % of control = 60.1; viability (ATP), % of control = 62.8; outcome = inactive

Reagents listed above with an active call (5):
Smap2 #1 | GFP, % of control = 204; viability (ATP), % of control = 95.7; outcome = active
Smap2 #4 | GFP, % of control = 123; viability (ATP), % of control = 106; outcome = active
Pcdhga4 #2 | GFP, % of control = 124; viability (ATP), % of control = 87.7; outcome = active
Akr1b7 #1 | GFP, % of control = 135; viability (ATP), % of control = 59.9; outcome = active
Ankrd17 #3 | GFP, % of control = 120; viability (ATP), % of control = 69; outcome = active
